Measured values from the supplement of paper PMC10849652.
The other results are listed elsewhere or left out. Residues, ends and D or L forms follow the SMILES beside them. *: point of attachment. Cbz = O=C(OCc1ccccc1)*

The chains behind the UniProt entries cited, without tags or fusion partners. Where a name states a change or a piece, a line headed by the entry shows the natural chain unless it says otherwise.
UniProt Q96KQ7: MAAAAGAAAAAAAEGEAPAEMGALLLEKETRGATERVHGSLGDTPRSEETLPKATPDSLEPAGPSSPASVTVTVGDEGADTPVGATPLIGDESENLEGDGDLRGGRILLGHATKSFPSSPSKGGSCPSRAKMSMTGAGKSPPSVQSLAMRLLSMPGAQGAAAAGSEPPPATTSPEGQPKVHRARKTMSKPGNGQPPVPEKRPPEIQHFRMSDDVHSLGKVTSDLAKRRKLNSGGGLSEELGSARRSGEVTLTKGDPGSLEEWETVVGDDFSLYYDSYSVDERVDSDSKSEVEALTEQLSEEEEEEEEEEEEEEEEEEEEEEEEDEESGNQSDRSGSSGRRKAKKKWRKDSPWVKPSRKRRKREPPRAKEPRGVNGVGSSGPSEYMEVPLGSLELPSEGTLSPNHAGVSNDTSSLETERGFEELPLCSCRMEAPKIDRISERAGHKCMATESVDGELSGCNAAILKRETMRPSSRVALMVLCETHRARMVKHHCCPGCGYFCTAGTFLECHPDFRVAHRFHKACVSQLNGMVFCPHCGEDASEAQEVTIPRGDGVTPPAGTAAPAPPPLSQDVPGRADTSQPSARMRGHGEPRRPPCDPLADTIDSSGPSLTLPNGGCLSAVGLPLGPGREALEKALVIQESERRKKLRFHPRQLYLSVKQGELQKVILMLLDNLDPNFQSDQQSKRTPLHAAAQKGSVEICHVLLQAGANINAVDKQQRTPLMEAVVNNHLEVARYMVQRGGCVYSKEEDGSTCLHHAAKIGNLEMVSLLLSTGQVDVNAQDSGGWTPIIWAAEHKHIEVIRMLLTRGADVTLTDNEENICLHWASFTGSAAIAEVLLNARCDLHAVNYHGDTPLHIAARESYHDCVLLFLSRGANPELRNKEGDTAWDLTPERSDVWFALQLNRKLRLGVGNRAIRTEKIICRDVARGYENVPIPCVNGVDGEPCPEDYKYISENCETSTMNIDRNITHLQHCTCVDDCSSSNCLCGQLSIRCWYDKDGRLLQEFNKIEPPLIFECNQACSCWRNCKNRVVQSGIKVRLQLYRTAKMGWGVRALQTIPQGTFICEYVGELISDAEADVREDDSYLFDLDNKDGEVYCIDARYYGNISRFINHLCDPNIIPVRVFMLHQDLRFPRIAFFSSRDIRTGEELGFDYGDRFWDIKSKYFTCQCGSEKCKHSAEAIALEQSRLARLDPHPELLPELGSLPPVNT
UniProt Q9UBQ5, whole entry, looked up: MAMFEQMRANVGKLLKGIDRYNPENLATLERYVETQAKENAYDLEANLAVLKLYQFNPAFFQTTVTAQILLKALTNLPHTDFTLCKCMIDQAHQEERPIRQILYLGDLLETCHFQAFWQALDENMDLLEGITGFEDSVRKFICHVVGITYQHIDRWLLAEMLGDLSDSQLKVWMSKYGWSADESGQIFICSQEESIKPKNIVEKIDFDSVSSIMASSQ
UniProt Q14232, whole entry, looked up: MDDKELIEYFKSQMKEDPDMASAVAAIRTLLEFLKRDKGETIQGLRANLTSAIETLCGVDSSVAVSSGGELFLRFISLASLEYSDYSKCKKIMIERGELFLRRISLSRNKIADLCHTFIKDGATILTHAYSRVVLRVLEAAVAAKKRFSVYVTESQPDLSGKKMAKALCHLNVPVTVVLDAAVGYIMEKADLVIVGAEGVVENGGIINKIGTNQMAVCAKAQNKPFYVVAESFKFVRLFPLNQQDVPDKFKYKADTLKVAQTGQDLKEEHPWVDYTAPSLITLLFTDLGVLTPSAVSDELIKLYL
UniProt P55884, whole entry, looked up: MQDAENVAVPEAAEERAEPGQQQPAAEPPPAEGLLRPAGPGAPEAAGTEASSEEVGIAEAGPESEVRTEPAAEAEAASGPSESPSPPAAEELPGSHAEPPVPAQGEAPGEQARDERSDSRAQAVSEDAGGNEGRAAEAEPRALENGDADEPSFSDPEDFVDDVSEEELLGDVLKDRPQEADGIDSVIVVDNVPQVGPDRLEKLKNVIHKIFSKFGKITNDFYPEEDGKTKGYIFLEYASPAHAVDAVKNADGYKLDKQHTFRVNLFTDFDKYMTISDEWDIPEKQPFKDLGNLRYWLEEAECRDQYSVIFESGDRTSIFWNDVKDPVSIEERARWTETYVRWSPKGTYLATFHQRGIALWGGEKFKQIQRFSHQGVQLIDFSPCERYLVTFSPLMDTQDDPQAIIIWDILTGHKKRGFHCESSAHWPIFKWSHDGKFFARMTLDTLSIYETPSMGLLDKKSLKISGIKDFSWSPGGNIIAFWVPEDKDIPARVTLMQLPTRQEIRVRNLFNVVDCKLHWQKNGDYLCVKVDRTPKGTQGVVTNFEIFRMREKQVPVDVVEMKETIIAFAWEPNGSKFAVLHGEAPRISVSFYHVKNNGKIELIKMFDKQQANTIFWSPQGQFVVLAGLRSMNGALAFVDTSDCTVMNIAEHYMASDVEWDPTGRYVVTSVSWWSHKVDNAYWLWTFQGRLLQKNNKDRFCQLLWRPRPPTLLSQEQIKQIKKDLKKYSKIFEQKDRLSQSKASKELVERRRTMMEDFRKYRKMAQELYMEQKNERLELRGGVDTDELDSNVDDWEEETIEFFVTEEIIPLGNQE
UniProt Q7Z2Z2: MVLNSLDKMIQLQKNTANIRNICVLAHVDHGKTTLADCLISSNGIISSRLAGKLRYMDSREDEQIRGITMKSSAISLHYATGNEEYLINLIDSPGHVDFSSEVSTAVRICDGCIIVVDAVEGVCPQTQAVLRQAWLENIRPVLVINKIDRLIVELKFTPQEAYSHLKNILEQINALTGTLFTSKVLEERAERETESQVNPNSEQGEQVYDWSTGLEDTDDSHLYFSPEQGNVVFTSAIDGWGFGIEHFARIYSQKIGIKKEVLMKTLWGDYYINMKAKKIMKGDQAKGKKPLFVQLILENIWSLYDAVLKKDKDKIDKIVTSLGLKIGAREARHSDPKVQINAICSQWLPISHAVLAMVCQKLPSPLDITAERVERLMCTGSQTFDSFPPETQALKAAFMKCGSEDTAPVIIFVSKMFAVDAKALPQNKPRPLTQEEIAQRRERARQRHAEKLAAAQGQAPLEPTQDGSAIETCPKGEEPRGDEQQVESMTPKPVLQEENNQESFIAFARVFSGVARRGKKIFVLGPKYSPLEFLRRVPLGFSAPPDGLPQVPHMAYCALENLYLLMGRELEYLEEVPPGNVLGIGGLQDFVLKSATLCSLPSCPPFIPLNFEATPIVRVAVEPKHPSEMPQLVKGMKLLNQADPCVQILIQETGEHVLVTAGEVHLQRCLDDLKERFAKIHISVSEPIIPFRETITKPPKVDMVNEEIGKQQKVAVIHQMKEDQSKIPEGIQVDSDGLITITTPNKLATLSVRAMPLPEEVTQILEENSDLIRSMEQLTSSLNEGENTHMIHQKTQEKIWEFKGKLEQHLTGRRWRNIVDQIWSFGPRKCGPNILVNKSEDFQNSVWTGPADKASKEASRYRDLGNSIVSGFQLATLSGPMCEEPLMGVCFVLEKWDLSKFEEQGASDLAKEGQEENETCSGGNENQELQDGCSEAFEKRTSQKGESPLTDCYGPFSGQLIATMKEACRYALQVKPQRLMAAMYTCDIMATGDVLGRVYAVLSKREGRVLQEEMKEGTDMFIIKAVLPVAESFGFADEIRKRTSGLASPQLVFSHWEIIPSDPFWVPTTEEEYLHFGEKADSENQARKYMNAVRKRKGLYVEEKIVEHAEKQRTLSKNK
UniProt Q9H4M9: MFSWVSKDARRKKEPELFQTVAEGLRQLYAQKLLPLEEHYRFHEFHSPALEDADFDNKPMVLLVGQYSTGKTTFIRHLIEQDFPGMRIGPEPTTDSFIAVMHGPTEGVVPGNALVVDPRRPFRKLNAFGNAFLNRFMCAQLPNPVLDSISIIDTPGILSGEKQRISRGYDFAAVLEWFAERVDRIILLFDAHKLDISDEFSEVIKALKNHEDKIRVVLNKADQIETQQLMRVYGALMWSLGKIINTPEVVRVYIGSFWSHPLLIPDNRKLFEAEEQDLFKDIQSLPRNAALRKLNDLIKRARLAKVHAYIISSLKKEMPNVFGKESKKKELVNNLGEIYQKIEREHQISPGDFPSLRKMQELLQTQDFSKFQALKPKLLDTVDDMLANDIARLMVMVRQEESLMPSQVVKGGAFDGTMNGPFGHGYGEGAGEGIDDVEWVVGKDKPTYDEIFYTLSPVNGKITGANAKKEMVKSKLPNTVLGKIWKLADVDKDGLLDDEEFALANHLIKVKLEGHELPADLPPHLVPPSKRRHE
UniProt Q9BV81: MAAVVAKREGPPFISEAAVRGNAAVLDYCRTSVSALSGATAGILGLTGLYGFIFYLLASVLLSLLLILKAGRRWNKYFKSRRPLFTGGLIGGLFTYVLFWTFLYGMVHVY
UniProt Q8TE02: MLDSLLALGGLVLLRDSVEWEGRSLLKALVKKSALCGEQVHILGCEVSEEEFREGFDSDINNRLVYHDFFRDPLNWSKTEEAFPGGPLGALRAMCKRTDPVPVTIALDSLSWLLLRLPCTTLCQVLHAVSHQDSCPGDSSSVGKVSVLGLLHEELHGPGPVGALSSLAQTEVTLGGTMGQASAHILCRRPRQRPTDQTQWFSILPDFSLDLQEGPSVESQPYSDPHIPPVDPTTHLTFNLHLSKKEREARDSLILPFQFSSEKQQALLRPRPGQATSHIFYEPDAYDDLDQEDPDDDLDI
UniProt P50402: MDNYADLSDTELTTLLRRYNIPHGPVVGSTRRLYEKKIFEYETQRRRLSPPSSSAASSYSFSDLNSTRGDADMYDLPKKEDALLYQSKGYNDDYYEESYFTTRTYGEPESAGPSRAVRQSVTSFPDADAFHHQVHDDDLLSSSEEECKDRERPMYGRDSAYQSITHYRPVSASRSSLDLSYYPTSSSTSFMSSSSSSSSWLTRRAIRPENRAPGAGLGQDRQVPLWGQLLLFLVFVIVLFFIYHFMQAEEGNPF
UniProt Q8IZ81: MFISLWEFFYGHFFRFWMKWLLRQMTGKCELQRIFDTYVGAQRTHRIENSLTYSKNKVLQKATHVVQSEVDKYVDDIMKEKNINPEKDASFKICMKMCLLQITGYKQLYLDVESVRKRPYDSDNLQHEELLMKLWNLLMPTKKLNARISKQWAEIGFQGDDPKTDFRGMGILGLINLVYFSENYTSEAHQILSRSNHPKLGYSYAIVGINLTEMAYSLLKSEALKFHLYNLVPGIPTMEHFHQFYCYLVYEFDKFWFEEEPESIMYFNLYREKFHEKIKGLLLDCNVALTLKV
UniProt O43768: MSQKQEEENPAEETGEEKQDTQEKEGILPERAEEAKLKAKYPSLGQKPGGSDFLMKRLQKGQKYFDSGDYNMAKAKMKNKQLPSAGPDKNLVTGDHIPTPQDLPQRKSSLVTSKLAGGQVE
UniProt Q9GZT9: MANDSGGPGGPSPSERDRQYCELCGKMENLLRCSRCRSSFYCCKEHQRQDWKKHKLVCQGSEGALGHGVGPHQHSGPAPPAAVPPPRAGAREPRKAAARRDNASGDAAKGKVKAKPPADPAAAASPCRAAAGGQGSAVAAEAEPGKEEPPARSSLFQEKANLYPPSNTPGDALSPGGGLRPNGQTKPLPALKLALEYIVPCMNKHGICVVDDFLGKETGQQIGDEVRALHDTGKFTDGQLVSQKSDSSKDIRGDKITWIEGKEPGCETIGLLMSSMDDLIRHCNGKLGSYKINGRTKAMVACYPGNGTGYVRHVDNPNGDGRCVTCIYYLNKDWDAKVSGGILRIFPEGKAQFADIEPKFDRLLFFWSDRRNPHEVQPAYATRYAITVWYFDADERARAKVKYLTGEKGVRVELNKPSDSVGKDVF

How the values were obtained:
Experiment in all cases: log2 fold change, soluble protein after heating vs DMSO (PISA); higher = thermal stabilisation; K562 cells, 10 uM, 30 min; active = over 0.2 and 3.5 SD of the protein, either way, in both replicates (recomputed)
erlotinib = compound: C#Cc1cccc(Nc2ncnc3cc(OCCOC)c(OCCOC)cc23)c1 [erlotinib]
Outline: (§1)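 Values are thermal stability changes relative to control samples and are taken from duplicates. They are stated as log2 fold changes. Before quantification by TMTpro 16plex LC-MS/MS with equalised channel sums, K562 cells at 2×10^6 cells/mL were treated with 10 μM compound for 30 min, heated in aliquots for 3 min across 48°C-58°C, pooled, extracted in PBS with 0.5% NP-40 at 4°C, and centrifuged at 21,000xg for 90 min to give the soluble supernatant.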

[1] = compound: C/C(=N\NC(=O)C1=CC(=CC=C1)S(=O)(=O)N2CCOCC2)/C3=C(C=CC(=C3)Cl)O
Outline: as §1

[2] = compound: C1=CC(=C(C=C1Cl)C2=NC3=NC=CN=C3C(=N2)NC4=CC=NC=C4)F
Outline: as §1

[3] = compound: C1=CC(=CC=C1C2=NC3=C(N2)C=C(C=C3)C(=O)N)OC4=CC=C(C=C4)Cl
Outline: as §1

[4] = compound: C1=CC2=C(C=CC(=C2)/C=C\3/C(=O)NC(=NCC4=CC=CS4)S3)N=C1
Outline: as §1

[5] = compound: C1=CC2=NC=CN=C2C=C1/C=C/3\C(=O)NC(=O)S3
Outline: as §1

[6] = compound: C1=CC=C(C=C1)C2=NC(=C(N2)C3=CC=NC=C3)C4=CC(=C(C=C4)Cl)O
Outline: as §1

[7] = compound: C1=CC=C2C(=C1)C3=NNC4=CC=CC(=C43)C2=O
Outline: as §1

[8] = compound: C1CCN(C1)C(=O)NC2=CC=CC(=C2)NC3=NC=C(C(=N3)NCCC4=CN=CN4)Br
Outline: as §1

[9] = compound: C1CN(CCC1(CC2=CC=C(C=C2)Cl)N)C3=NC=NC4=C3C=CN4
Outline: as §1

IRAK-1-4 Inhibitor I = compound: C1COCCN1CCN2C3=CC=CC=C3N=C2NC(=O)C4=CC(=CC=C4)[N+](=O)[O-] [IRAK-1-4 Inhibitor I]
Outline: as §1

ibrutinib = compound: C=CC(=O)N1CCC[C@@H](n2nc(-c3ccc(Oc4ccccc4)cc3)c3c(N)ncnc32)C1 [ibrutinib]
Outline: as §1

[10] = compound: CC(=O)c1cnc2ccc(-c3cc(Cl)c(O)c(Cl)c3)nc2c1N[C@H]1CC[C@H](CN(C)C)CC1
Outline: as §1

ralimetinib = compound: CC(C)(C)Cn1c(N)nc2ccc(-c3[nH]c(C(C)(C)C)nc3-c3ccc(F)cc3)nc21 [ralimetinib]
Outline: as §1

[11] = compound: CC(C)(O)CC(=O)NCCn1ccc2ncnc(Nc3ccc(Oc4cccc(C(F)(F)F)c4)c(Cl)c3)c21
Outline: as §1

[12] = compound: CC(C)C1=C2N=C(C=C(N2N=C1)NCC3=CC=CC=C3)NCCCCCCN
Outline: as §1

[13] = compound: CC(C)C[C@@H](C=O)NC(=O)[C@H](CC(C)C)NC(=O)[C@H](CC(C)C)NC(=O)OCc1ccccc1
Outline: as §1

pinometostat = compound: CC(C)N(C[C@H]1O[C@@H](n2cnc3c(N)ncnc32)[C@H](O)[C@@H]1O)[C@H]1C[C@@H](CCc2nc3cc(C(C)(C)C)ccc3[nH]2)C1 [pinometostat]
Outline: as §1

[14] = compound: CC1=C(C(CC(=O)N1)C2=CC=C(C=C2)C(F)(F)F)C(=O)NC3=C(C=C4C(=C3)C=NN4)F
Outline: as §1

[15] = compound: CC1=C(C2=C(C=C1)C(=O)C3=CC=CC=C3N2CCCN)C
Outline: as §1

Target | log2 fold change (erlotinib) | log2 fold change [1] | log2 fold change [2] | log2 fold change [3] | log2 fold change [4] | log2 fold change [5] | log2 fold change [6] | log2 fold change [7] | log2 fold change [8] | log2 fold change [9] | log2 fold change (IRAK-1-4 Inhibitor I) | log2 fold change (ibrutinib) | log2 fold change [10] | log2 fold change (ralimetinib) | log2 fold change [11] | log2 fold change [12] | log2 fold change [13] | log2 fold change (pinometostat) | log2 fold change [14] | log2 fold change [15]
EHMT2 (UniProt Q96KQ7) | inactive: 0.085 | inactive: 0.075 | inactive: 0.021 | inactive: -0.045 | inactive: 0.026 | inactive: 0.056 | inactive: 0.155 | inactive: -0.086 | inactive: 0.074 | inactive: -0.02 | inactive: -0.09 | inactive: -0.034 | inactive: -0.015 | inactive: 0.004 | inactive: -0.064 | inactive: -0.046 | inactive: 0.061 | inactive: 0.132 | inactive: 0.001 | inactive: 0.026
EIF3K (UniProt Q9UBQ5) | inactive: 0.021 | inactive: 0.043 | inactive: 0.117 | inactive: 0.012 | inactive: 0.042 | inactive: 0.05 | inactive: 0.08 | inactive: -0.023 | inactive: -0.005 | inactive: -0.048 | inactive: -0.022 | inactive: -0.017 | inactive: -0.003 | inactive: 0.03 | inactive: -0.079 | inactive: -0.065 | inactive: -0.022 | inactive: -0.018 | inactive: 0.031 | inactive: 0.095
EIF2B1 (UniProt Q14232) | inactive: 0 | inactive: 0.05 | inactive: 0.045 | inactive: -0.004 | inactive: -0.01 | inactive: -0.017 | inactive: 0.012 | inactive: 0.017 | inactive: -0.037 | inactive: -0.017 | inactive: 0.018 | inactive: 0.038 | inactive: 0.021 | inactive: 0.013 | inactive: -0.009 | inactive: 0.025 | inactive: -0.052 | inactive: -0.004 | inactive: -0.003 | inactive: 0.012
EI24 (UniProt O14681) | inactive: 0.009 | inactive: 0.014 | inactive: 0.025 | inactive: 0.042 | inactive: 0.049 | inactive: 0.115 | inactive: 0.171 | inactive: 0.024 | inactive: -0.071 | inactive: 0.066 | inactive: 0.001 | inactive: 0.018 | inactive: 0.065 | inactive: 0.056 | inactive: -0.01 | inactive: -0.145 | inactive: -0.084 | inactive: -0.072 | inactive: 0.029 | inactive: 0.008
EIF3B isoform 2 (UniProt P55884) | inactive: 0.024 | inactive: 0 | inactive: -0.113 | inactive: -0.015 | inactive: 0.021 | inactive: 0.031 | inactive: -0.015 | inactive: -0.031 | inactive: -0.003 | inactive: -0.164 | inactive: -0.127 | inactive: -0.059 | inactive: 0.032 | inactive: 0.089 | inactive: 0 | inactive: -0.196 | inactive: 0.075 | inactive: 0.209 | inactive: 0.046 | inactive: -0.093
EFL1 (UniProt Q7Z2Z2) | inactive: 0 | inactive: 0.051 | inactive: 0.027 | inactive: 0.002 | inactive: 0.013 | inactive: 0.002 | inactive: 0.053 | inactive: 0.043 | inactive: 0.027 | inactive: 0.013 | inactive: 0.016 | inactive: -0.019 | inactive: -0.039 | inactive: -0.004 | inactive: -0.069 | inactive: -0.103 | inactive: 0.03 | inactive: 0.005 |  | inactive: -0.058
EHD1 (UniProt Q9H4M9) | inactive: 0.038 | inactive: 0.013 | inactive: 0.047 | inactive: -0.002 | inactive: 0.03 | inactive: 0.002 | inactive: 0.016 | inactive: 0.009 | inactive: -0.021 | inactive: 0.019 | inactive: 0.046 | inactive: -0.021 | inactive: -0.049 | inactive: -0.007 | inactive: -0.045 | inactive: -0.034 | inactive: -0.013 | inactive: -0.021 | inactive: 0.003 | inactive: 0.013
EMC6 (UniProt Q9BV81) | inactive: 0.146 | inactive: 0.069 | inactive: 0.04 | inactive: -0.07 | inactive: 0.049 | inactive: -0.007 | inactive: -0.072 | inactive: -0.027 | inactive: -0.092 | inactive: 0.036 | inactive: -0.207 | inactive: 0.021 | inactive: 0.074 | inactive: -0.025 | inactive: -0.022 | inactive: 0.03 | inactive: -0.093 | inactive: 0.026 | inactive: 0.126 | inactive: 0.057
ELP5 isoform 4 (UniProt Q8TE02) | inactive: -0.047 | inactive: 0.03 | inactive: -0.01 | inactive: 0.017 | inactive: 0.053 | inactive: -0.008 | inactive: -0.039 | inactive: -0.03 | inactive: -0.02 | inactive: 0 | inactive: 0.044 | inactive: 0.02 | inactive: -0.036 | inactive: -0.011 | inactive: -0.018 | inactive: 0.097 | inactive: 0.059 | inactive: -0.044 | inactive: -0.012 | inactive: 0.045
EMD (UniProt P50402) | inactive: 0.025 | inactive: 0.002 | inactive: -0.078 | inactive: 0.056 | inactive: 0.008 | inactive: 0.033 | inactive: -0.011 | inactive: -0.072 | inactive: 0.031 | inactive: 0.074 | inactive: 0.039 | inactive: 0.009 | inactive: -0.021 | inactive: -0.004 | inactive: 0.028 | inactive: -0.114 | inactive: 0.034 | inactive: 0.013 |  | inactive: -0.042
ELMOD2 (UniProt Q8IZ81) | inactive: -0.066 | inactive: 0.054 | inactive: -0.001 | inactive: -0.02 | inactive: 0.041 | inactive: 0.03 | inactive: -0.045 | inactive: -0.045 | inactive: -0.002 | inactive: 0.012 | inactive: 0.048 | inactive: 0.001 | inactive: 0.016 | inactive: -0.039 | inactive: 0 | inactive: 0.02 | inactive: 0.087 | inactive: -0.022 | inactive: -0.022 | inactive: 0.007
ENSA isoform 3 (UniProt O43768) | inactive: -0.02 | inactive: -0.043 | inactive: 0.011 | inactive: 0.017 | inactive: -0.062 | inactive: 0.015 | inactive: -0.035 | inactive: 0.009 | inactive: 0.056 | inactive: 0.039 | inactive: 0.086 | inactive: 0.002 | inactive: 0.014 | inactive: -0.072 | inactive: 0.013 | inactive: 0.085 | inactive: 0.015 | inactive: -0.06 | inactive: 0.053 | inactive: -0.034
EED, A0A5F9ZI63 | inactive: 0.056 | inactive: 0.049 | inactive: -0.04 | inactive: 0.028 | inactive: -0.1 | inactive: 0.05 | inactive: -0.036 | inactive: -0.033 | inactive: 0.032 | inactive: 0.012 | inactive: -0.032 | inactive: -0.012 | inactive: -0.041 | inactive: 0.042 | inactive: 0.053 | inactive: 0.05 | inactive: 0.03 | inactive: 0.052 |  | inactive: 0.145
EGLN1 (UniProt Q9GZT9) | inactive: 0.035 | active: -0.355 | inactive: 0.075 | inactive: -0.035 | inactive: 0.043 | inactive: -0.08 | inactive: 0.021 | inactive: -0.02 | inactive: 0.01 | inactive: -0.003 | inactive: 0.016 | inactive: -0.054 | inactive: -0.027 | inactive: -0.034 | inactive: -0.01 | inactive: -0.083 | inactive: 0.018 | inactive: 0.045 |  | inactive: -0.029
ELOF1 (UniProt P60002) | inactive: -0.072 | inactive: 0.025 | inactive: 0.026 | inactive: 0.051 | inactive: -0.045 | inactive: -0.015 | inactive: 0.062 | inactive: -0.257 | inactive: -0.153 | inactive: -0.054 | inactive: 0 | inactive: 0.036 | inactive: 0.325 | inactive: 0.071 | inactive: -0.067 | inactive: 0.071 | inactive: -0.219 | inactive: -0.127 | inactive: 0.088 | inactive: -0.018
EIF2AK4 (UniProt Q9P2K8) | inactive: 0.015 | inactive: -0.041 | inactive: -0.061 | inactive: -0.063 | inactive: 0.017 | inactive: 0.001 | inactive: -0.015 | inactive: -0.202 | inactive: -0.019 | inactive: 0 | inactive: -0.101 | inactive: -0.004 | inactive: -0.231 | inactive: 0.132 | inactive: -0.025 | inactive: -0.134 | inactive: 0.016 | inactive: 0.106 | inactive: 0.045 | inactive: -0.139

For reference, part of the list above:
Target | log2 fold change (erlotinib) | log2 fold change [1] | log2 fold change [2] | log2 fold change [3] | log2 fold change [4] | log2 fold change [5] | log2 fold change [6] | log2 fold change [7] | log2 fold change [8] | log2 fold change [9] | log2 fold change (IRAK-1-4 Inhibitor I) | log2 fold change (ibrutinib) | log2 fold change [10] | log2 fold change (ralimetinib) | log2 fold change [11] | log2 fold change [12] | log2 fold change [13] | log2 fold change (pinometostat) | log2 fold change [14] | log2 fold change [15]
EMD (UniProt P50402) | inactive: 0.025 | inactive: 0.002 | inactive: -0.078 | inactive: 0.056 | inactive: 0.008 | inactive: 0.033 | inactive: -0.011 | inactive: -0.072 | inactive: 0.031 | inactive: 0.074 | inactive: 0.039 | inactive: 0.009 | inactive: -0.021 | inactive: -0.004 | inactive: 0.028 | inactive: -0.114 | inactive: 0.034 | inactive: 0.013 |  | inactive: -0.042
ELMOD2 (UniProt Q8IZ81) | inactive: -0.066 | inactive: 0.054 | inactive: -0.001 | inactive: -0.02 | inactive: 0.041 | inactive: 0.03 | inactive: -0.045 | inactive: -0.045 | inactive: -0.002 | inactive: 0.012 | inactive: 0.048 | inactive: 0.001 | inactive: 0.016 | inactive: -0.039 | inactive: 0 | inactive: 0.02 | inactive: 0.087 | inactive: -0.022 | inactive: -0.022 | inactive: 0.007
